The record followed here is paper PMC6695381.

Amino acid sequences for entries named in this document (tags omitted).
UniProt P49069: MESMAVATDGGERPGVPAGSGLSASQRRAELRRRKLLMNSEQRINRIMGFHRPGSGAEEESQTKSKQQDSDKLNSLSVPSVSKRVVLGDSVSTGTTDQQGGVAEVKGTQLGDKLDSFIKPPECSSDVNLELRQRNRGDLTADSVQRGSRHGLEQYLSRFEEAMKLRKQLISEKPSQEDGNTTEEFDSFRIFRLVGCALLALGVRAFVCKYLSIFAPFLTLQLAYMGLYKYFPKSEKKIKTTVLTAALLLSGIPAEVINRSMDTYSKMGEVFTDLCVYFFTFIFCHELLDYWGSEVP

Results are given in words; binding and its absence hold for the method and conditions named. For part of these data: Binding seen in cells or lysates may run through a third protein. Some entries that bind do so weakly or less than the wild type.

Assay [1] addresses T1, Tryptophan rich basic protein (WRB) (human (endogenous in HeLa)) (UniProt O00258).
T1 sequence: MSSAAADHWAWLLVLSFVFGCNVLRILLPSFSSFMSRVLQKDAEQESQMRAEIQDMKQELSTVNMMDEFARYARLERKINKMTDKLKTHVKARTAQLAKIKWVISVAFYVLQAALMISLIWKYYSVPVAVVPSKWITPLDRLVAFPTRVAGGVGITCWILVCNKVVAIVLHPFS
Briefly: native gel or EMSA; BN-PAGE (6-15% gradient gels) and immunoblot of HeLa membrane fraction solubilized with 0.5% n-Dodecyl beta-D-maltoside in 500 mM aminocaproic acid, 50 mM Bis-Tris-HCl pH 7.0, 1 mM EDTA. Background: In EMSA bound probe runs differently from free probe, usually more slowly.

The target in assay [2] is T1, Tryptophan rich basic protein (WRB) (human (endogenous in HeLa)). Briefly: co-IP; endogenous proteins; HeLa postnuclear supernatant in 0.6% Deoxy Big Chaps, 50 mM Hepes-K+ pH 7.4, 250 mM sorbitol, 70 mM potassium acetate, 5 mM EDTA, 2.5 mM Mg(OAc)2; anti-CAML, anti-WRB or non-immune rabbit IgG plus protein G agarose, overnight at 4 °C; SDS-PAGE/IB.
Assay [3] deals with Calcium-modulating cyclophilin ligand (CAML) (human (endogenous in HeLa)) (UniProt P49069). The assay is described as above.

For the molecule “Calcium-modulating cyclophilin ligand (CAML) (from UniProt P49069 1-296)”, the binding entry in assay [1] and in assay [2] was “binds” throughout.

B1: Tryptophan rich basic protein (WRB) (protein, UniProt O00258 1-174)
chain: MSSAAADHWAWLLVLSFVFGCNVLRILLPSFSSFMSRVLQKDAEQESQMRAEIQDMKQELSTVNMMDEFARYARLERKINKMTDKLKTHVKARTAQLAKIKWVISVAFYVLQAALMISLIWKYYSVPVAVVPSKWITPLDRLVAFPTRVAGGVGITCWILVCNKVVAIVLHPFS
On to B1, for which, in assay [3], the binding result was “binds”.
